The list shows a part of the results, in another mix than the full data. Calls are pooled over several reports, among them a noisy single-well screen. This is one part of the list.
Columns and labels:
Conditions in all cases: stereoisomer not certain
OR6V1 (Homo sapiens) = molecular target: T1, OR6V1 (Homo sapiens) (UniProt Q8N148)
T1 sequence (whole entry): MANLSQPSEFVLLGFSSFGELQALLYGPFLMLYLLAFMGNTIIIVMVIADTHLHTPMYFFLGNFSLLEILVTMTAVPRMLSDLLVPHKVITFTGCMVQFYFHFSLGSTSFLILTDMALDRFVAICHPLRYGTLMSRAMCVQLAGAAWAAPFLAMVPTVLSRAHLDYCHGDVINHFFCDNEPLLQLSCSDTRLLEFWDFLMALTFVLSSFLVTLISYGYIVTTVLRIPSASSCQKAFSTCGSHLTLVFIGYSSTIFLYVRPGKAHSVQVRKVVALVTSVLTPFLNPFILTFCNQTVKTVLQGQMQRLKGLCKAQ
Summary of the method: (§1)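 Assay methods differ from source to source, frequently being transient luciferase assays in mammalian cell lines. For each receptor–molecule pair, the label responsive (active) applies when the original authors judged the measured signal statistically different from baseline, and non-responsive (inactive) applies otherwise.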

Chains of the proteins cited; added tags and fusions are not shown. A line that says so, or that is headed by a name, gives the form on record, which may keep a tag or linker.
OR7C1, as listed by the source: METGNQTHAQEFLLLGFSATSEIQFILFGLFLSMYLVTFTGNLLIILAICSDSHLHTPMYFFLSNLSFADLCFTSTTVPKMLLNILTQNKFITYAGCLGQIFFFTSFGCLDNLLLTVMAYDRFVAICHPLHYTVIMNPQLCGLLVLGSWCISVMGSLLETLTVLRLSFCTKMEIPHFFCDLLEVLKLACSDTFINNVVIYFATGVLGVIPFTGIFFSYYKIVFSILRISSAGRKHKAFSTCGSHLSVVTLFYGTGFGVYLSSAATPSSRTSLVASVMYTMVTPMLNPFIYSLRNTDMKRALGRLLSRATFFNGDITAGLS

OR6X1 (Homo sapiens) = molecular target: T2, OR6X1 (Homo sapiens) (UniProt Q8NH79)
T2 sequence (whole entry): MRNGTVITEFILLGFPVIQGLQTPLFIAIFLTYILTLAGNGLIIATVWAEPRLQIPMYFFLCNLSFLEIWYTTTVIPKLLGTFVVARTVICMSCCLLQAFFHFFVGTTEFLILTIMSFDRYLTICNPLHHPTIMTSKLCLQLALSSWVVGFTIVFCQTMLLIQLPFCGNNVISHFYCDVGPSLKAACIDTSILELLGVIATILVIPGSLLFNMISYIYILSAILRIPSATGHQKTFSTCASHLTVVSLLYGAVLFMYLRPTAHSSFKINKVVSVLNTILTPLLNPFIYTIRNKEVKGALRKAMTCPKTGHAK
Summary of the method: as §1

OR6Y1 = tested on: T3, OR6Y1
T3 sequence (whole entry): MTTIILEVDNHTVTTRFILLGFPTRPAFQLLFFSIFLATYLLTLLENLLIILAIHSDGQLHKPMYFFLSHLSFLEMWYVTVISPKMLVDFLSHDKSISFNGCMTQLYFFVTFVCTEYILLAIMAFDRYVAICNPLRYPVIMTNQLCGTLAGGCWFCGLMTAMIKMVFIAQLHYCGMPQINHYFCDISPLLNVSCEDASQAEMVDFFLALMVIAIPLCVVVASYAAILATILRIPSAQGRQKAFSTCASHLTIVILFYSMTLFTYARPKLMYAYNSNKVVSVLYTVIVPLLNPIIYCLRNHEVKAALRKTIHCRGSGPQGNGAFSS
Summary of the method: as §1

OR7A10 (Homo sapiens) = molecular target: T4, OR7A10 (Homo sapiens) (UniProt O76100)
T4 sequence (whole entry): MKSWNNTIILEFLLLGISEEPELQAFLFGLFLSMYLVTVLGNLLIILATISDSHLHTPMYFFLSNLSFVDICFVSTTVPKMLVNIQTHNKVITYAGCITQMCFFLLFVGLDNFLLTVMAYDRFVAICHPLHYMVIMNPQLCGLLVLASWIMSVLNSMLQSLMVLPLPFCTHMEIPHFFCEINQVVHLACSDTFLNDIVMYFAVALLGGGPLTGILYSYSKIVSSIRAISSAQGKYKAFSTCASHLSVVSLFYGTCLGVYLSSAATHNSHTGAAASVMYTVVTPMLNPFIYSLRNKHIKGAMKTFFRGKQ
Summary of the method: as §1

OR7A17 (Homo sapiens) = molecular target: T5, OR7A17 (Homo sapiens) (UniProt O14581)
T5 sequence (whole entry): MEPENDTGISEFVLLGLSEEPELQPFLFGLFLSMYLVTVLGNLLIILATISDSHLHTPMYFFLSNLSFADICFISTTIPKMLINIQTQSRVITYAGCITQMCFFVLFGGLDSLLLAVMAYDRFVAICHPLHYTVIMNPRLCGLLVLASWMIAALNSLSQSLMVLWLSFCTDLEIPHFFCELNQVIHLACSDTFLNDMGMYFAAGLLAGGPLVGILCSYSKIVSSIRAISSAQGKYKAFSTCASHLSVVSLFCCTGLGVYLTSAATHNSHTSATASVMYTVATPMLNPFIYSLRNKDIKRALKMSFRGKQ
Summary of the method: as §1

OR7A5 (Homo sapiens) = molecular target: T6, OR7A5 (Homo sapiens) (UniProt Q15622)
T6 sequence (whole entry): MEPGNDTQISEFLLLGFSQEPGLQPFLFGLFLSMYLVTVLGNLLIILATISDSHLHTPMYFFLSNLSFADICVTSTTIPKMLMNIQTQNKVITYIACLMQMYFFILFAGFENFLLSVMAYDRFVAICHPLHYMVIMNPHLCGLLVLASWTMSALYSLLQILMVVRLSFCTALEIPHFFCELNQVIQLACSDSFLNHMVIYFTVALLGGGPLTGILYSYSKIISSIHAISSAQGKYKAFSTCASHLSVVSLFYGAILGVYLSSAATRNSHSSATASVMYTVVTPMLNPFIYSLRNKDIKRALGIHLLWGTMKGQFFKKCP
Summary of the method: as §1

OR7C1 [1] = tested on: T7, OR7C1
T7 sequence (whole entry): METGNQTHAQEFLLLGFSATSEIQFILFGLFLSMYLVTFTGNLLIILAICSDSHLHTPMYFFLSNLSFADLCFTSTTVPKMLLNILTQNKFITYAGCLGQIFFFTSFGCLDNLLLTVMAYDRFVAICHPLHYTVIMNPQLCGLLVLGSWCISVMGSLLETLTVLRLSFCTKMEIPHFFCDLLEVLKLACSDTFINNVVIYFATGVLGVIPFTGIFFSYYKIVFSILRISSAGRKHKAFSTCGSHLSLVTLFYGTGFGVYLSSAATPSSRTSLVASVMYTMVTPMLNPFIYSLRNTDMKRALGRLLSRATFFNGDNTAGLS
Summary of the method: as §1

OR7C2 = tested on: T8, OR7C2
T8 sequence (whole entry): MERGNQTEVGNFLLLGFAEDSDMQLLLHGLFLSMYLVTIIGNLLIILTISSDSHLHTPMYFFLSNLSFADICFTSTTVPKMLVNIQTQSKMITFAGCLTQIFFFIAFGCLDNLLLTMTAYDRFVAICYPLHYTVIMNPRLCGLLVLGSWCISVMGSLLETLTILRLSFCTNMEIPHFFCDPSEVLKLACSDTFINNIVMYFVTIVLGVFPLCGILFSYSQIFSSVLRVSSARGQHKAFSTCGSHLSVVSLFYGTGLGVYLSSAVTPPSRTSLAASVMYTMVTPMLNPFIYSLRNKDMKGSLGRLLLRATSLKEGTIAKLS
Summary of the method: as §1

OR7D2 = tested on: T9, OR7D2
T9 sequence (whole entry): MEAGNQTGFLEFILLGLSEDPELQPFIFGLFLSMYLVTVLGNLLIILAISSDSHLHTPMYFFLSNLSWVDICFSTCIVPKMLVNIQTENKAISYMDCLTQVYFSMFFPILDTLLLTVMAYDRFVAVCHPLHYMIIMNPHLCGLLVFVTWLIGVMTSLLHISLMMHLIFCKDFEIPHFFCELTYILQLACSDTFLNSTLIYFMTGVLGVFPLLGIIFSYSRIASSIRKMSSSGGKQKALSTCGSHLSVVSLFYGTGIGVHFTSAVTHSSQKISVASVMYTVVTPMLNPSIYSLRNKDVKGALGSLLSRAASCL
Summary of the method: as §1

OR7D4 (Homo sapiens) = molecular target: T10, OR7D4 (Homo sapiens) (UniProt Q8NG98)
T10 sequence (whole entry): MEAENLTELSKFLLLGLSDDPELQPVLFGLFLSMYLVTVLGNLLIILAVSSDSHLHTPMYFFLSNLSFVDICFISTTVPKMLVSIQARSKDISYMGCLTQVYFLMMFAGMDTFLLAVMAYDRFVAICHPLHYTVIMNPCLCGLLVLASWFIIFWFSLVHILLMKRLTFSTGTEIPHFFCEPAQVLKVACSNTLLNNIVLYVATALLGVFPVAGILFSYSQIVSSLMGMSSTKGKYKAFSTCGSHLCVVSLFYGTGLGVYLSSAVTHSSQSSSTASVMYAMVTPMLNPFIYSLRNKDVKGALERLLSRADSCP
Summary of the method: as §1

OR7C1 (Homo sapiens) = OR7C1 (Homo sapiens) (UniProt O76099)
Summary of the method: as §1

OR7C1 [2] = tested on: OR7C1; remark: listed apart in the source
Summary of the method: as §1

OR7C1 [3] = tested on: OR7C1; remark: listed apart in the source
Summary of the method: as §1

OR7D2 (Homo sapiens) = OR7D2 (Homo sapiens) (UniProt Q96RA2)
Summary of the method: as §1

Measured: odorant receptor agonist call

C=CC(C)(O)CCC=C(C)C (stereo not drawn)
inactive: OR6V1 (Homo sapiens) | OR6X1 (Homo sapiens) | OR6Y1 | OR7A10 (Homo sapiens) | OR7A17 (Homo sapiens) | OR7A5 (Homo sapiens) | OR7C1 [1] | OR7C2 | OR7D2 | OR7D4 (Homo sapiens)

CCCCCC(=O)O
inactive: OR6V1 (Homo sapiens) | OR6X1 (Homo sapiens) | OR6Y1 | OR7A10 (Homo sapiens) | OR7A17 (Homo sapiens) | OR7A5 (Homo sapiens) | OR7C1 [1] | OR7C2 | OR7D2 | OR7D4 (Homo sapiens)

CC(C)=CCCC(C)=CC=O
inactive: OR6V1 (Homo sapiens) | OR6X1 (Homo sapiens) | OR6Y1 | OR7A10 (Homo sapiens) | OR7A17 (Homo sapiens) | OR7A5 (Homo sapiens) | OR7C1 [1] | OR7C2 | OR7D2 | OR7D4 (Homo sapiens)

CCCCCCCCCCC=O
inactive: OR6V1 (Homo sapiens) | OR6X1 (Homo sapiens) | OR6Y1 | OR7A10 (Homo sapiens) | OR7A17 (Homo sapiens) | OR7A5 (Homo sapiens) | OR7C1 [1] | OR7C2 | OR7D2 | OR7D4 (Homo sapiens)

Ordered by SMILES length (low to high): part of the list above.
CCCCCCCCCCC=O
inactive: OR6V1 (Homo sapiens) | OR6X1 (Homo sapiens) | OR6Y1 | OR7A10 (Homo sapiens) | OR7A17 (Homo sapiens) | OR7A5 (Homo sapiens) | OR7C1 [1] | OR7C2 | OR7D2 | OR7D4 (Homo sapiens)

CC(C)=CCCC(C)=CC=O
inactive: OR6V1 (Homo sapiens) | OR6X1 (Homo sapiens) | OR6Y1 | OR7A10 (Homo sapiens) | OR7A17 (Homo sapiens) | OR7A5 (Homo sapiens) | OR7C1 [1] | OR7C2 | OR7D2 | OR7D4 (Homo sapiens)

C=CC(C)(O)CCC=C(C)C (stereo not drawn)
inactive: OR6V1 (Homo sapiens) | OR6X1 (Homo sapiens) | OR6Y1 | OR7A10 (Homo sapiens) | OR7A17 (Homo sapiens) | OR7A5 (Homo sapiens) | OR7C1 [1] | OR7C2 | OR7D2 | OR7D4 (Homo sapiens)

(more compounds)

CCCCCCCCOC(C)=O
inactive: OR6V1 (Homo sapiens) | OR6X1 (Homo sapiens) | OR6Y1 | OR7A10 (Homo sapiens) | OR7A17 (Homo sapiens) | OR7A5 (Homo sapiens) | OR7C1 [1] | OR7C2 | OR7D2 | OR7D4 (Homo sapiens)

CC1COCc2cc3c(cc21)C(C)(C)C(C)C3(C)C (stereo not drawn)
active: OR6V1 (Homo sapiens) | OR6Y1 | OR7A10 (Homo sapiens) | OR7A17 (Homo sapiens) | OR7A5 (Homo sapiens) | OR7C1 [1] | OR7D2
inactive: OR6X1 (Homo sapiens) | OR7C2

CCCCCCCC=O
inactive: OR6V1 (Homo sapiens) | OR6X1 (Homo sapiens) | OR6Y1 | OR7A10 (Homo sapiens) | OR7A17 (Homo sapiens) | OR7A5 (Homo sapiens) | OR7C1 [1] | OR7C2 | OR7D2 | OR7D4 (Homo sapiens)

CC12C=CCC1C1CCC3=CC(=O)CCC3(C)C1CC2 (stereo not drawn)
inactive: OR6V1 (Homo sapiens) | OR6X1 (Homo sapiens) | OR6Y1 | OR7A10 (Homo sapiens) | OR7A17 (Homo sapiens) | OR7A5 (Homo sapiens) | OR7C1 (Homo sapiens) | OR7C2 | OR7D2 (Homo sapiens) | OR7D2
active: OR7C1 [1] | OR7C1 [2] | OR7C1 [3] | OR7D4 (Homo sapiens)

O=CCc1ccccc1
active: OR6V1 (Homo sapiens) | OR6X1 (Homo sapiens)
inactive: OR6Y1 | OR7A10 (Homo sapiens) | OR7A17 (Homo sapiens) | OR7A5 (Homo sapiens) | OR7C1 [1] | OR7C2 | OR7D2 | OR7D4 (Homo sapiens)

c1cnccn1
inactive: OR6V1 (Homo sapiens) | OR6X1 (Homo sapiens) | OR6Y1 | OR7A10 (Homo sapiens) | OR7A17 (Homo sapiens) | OR7A5 (Homo sapiens) | OR7C1 [1] | OR7C2 | OR7D2 | OR7D4 (Homo sapiens)

CC(C)(C)c1ccc(CCC=O)cc1
inactive: OR6V1 (Homo sapiens) | OR6X1 (Homo sapiens) | OR6Y1 | OR7A10 (Homo sapiens) | OR7A17 (Homo sapiens) | OR7A5 (Homo sapiens) | OR7C1 [1] | OR7C2 | OR7D2 | OR7D4 (Homo sapiens)

CC(=O)OCC=C(C)CCC=C(C)C
active: OR6X1 (Homo sapiens)
inactive: OR6V1 (Homo sapiens) | OR6Y1 | OR7A10 (Homo sapiens) | OR7A17 (Homo sapiens) | OR7A5 (Homo sapiens) | OR7C1 [1] | OR7C2 | OR7D2 | OR7D4 (Homo sapiens)
